# PubChem BioAssay AID686937 – Drosophila RNAi Screening Center, 2013
# Aim: 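Knock-downs that reduce output of a secreted reporter enzyme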 (primary screen)
# System: Drosophila S2 cells expressing secreted horseradish peroxidase
# Reagent: long dsRNA against Drosophila genes
# Duration: about 5.5 days (5 days dsRNA, then 12 h reporter induction)
# Conditions: reporter expression induced after 5 days of dsRNA, read 12 h later; inducer not stated
# Read-out: 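Chemiluminescent measurement of peroxidase in the medium 12 h after reporter induction, following 5 days of dsRNA, given as a z-score per plate; higher means more secretion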
# Reading the numbers: z-score: higher = more reporter secreted into medium
# The deposit covers about 23,000 reagents; below is a random part of those with a known target gene and a result. 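Reduced-secretion tags in replicate 1 do not always agree with the z-scores; no criterion for assigning the tags was given.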 Names joined by + are all predicted targets of the reagent. Not all columns of the deposit are shown. Not given: the amount of reagent.
gene knocked down,DRSC id,"z-score, replicate 1","z-score, replicate 2"
CG32344 (GeneID 326208),DRSC08578,0.14,0.22
CG43292 (GeneID 12798367),DRSC08883,0.51,0.14
CG43292 (GeneID 12798367),DRSC21542,0.09,-0.43
CG12817 + CG12420,DRSC22814,0.07,0.36
CG5768 (GeneID 42915),DRSC15870,0.3,0.35
CG42755 (retired record) (GeneID 10178886),DRSC09105,0.85,0.3
CG42755 (retired record) (GeneID 10178886),DRSC09106,0.47,0.15
CG14969 (GeneID 38415),DRSC08428,0.32,0.63
Set (GeneID 41844),DRSC16861,0.36,0.54
jar (GeneID 42889),DRSC16974,0.26,0.2
CG33771 (GeneID 3772424),DRSC11718,-0.65,0.02
oys (GeneID 36045),DRSC05203,-2.31,
oys (GeneID 36045),DRSC06751,0.3,0.46
Golgin104 (GeneID 39810),DRSC10459,0.06,0.25
CG43116 (GeneID 12798270),DRSC13737,-1.6,-0.29
Vha16-3 (GeneID 317846),DRSC10872,0.55,0.34

In a second layout: entries from further up
{"gene knocked down": "jar (GeneID 42889)", "DRSC id": "DRSC16974", "z-score, replicate 1": 0.26, "z-score, replicate 2": 0.2}
{"gene knocked down": "CG33771 (GeneID 3772424)", "DRSC id": "DRSC11718", "z-score, replicate 1": -0.65, "z-score, replicate 2": 0.02}

Additional records follow:
gene knocked down,DRSC id,"z-score, replicate 1","z-score, replicate 2"
CG6254 (GeneID 41244),DRSC16002,0.5,0.15
CG17826 (GeneID 39354),DRSC10289,0.44,0.22
Ssl1 (GeneID 40509),DRSC11634,-1.9,-1.16
Fbw5 (GeneID 33854),DRSC03146,0.13,-0.02
lncRNA:CR43434 (GeneID 12798271),DRSC13766,0.18,0.31
CG3597 (GeneID 33420),DRSC00617,0.23,0.16
Ubc6 (GeneID 40610),DRSC12370,0.42,-0.03
CG10950 (GeneID 36942),DRSC06020,0.13,0.09
AOX3 (GeneID 41896),DRSC15955,0.34,0.18
Zw (GeneID 32974),DRSC20303,-7.25,0.37
CG11291 (GeneID 37541),DRSC04097,0.17,0.11
lncRNA:CR40629 (GeneID 10178881),DRSC20959,0.12,0.22
CG12506 (GeneID 33249),DRSC00347,0.55,0.28
Cht8 (GeneID 37390),DRSC04546,0.14,-0.07
CG13560 (GeneID 37758),DRSC04198,-0.02,0.25
Cyp4d1 (GeneID 31188),DRSC17694,-0.48,0.47
Cyp4d1 (GeneID 31188),DRSC18456,0.09,0.28
